The whole screen tested about 400,000 compounds, of which about 13,000 (3.2%) were called active. The inconclusive results got no clear call from the source; some entries with a clear call stand among them for comparison. Calls follow the shape of the dose curve; as a rule, active = well fitted cell-killing curve with a large enough effect; inconclusive = small, poorly fitted or top-dose-only effect, or effect the other way; inactive = flat fitted curve, though single readings scatter. Potencies of inconclusive entries are doubtful fits and often do not repeat.
test: qHTS assay for MDR1-selective chemotherapeutics: Primary screen using the drug-selected MDR subline cells KB-V1; settings: KB-V1 MDR cells viability, CellTiter-Glo, 72 h; activity change, negative = cytotoxicity: at 46.1 µM (top of the series); also: nearly all actives have a fitted effect of over 60% in size
Summary of the method: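 KB-V1 MDR subline cells in DMEM (phenol-red free, 10% FBS) exposed to compounds in qHTS concentration series for 72 h at 37 degrees C. Viability read by CellTiter-Glo luminescence; concentration-effect curves fitted after normalization and correction.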
% is scaled to controls: 0 for no effect and ±100 for the full control effect; potency is read from the fitted curve at half-maximal effect.

Compound	Potency	activity change, negative = cytotoxicity
COc1cccc(CNc2nn[nH]n2)c1OC	inconclusive: 23.1 µM [rising, single point]	
Nc1cc(N)nc(SCc2ccc(Cl)cc2)n1	inconclusive: 14.6 µM [rising, partial curve]	
CCOC(=O)Cc1ccc(NC(=O)N(Cc2ccc(OC)cc2)C2CCN(C(C)=O)CC2)cc1		inactive: -23.9%
CCOc1ccccc1NC(C)C(=O)NC(=O)NC1CCCCC1 (stereo not given)		inactive: -0.405%
N#Cc1c(N)nc(SCc2ccccn2)c(C#N)c1-c1cccs1	active: 2.91 µM	
O=C(c1ccc(CS(=O)Cc2ccc(Cl)cc2)o1)N1CCN(c2cccc(Cl)c2)CC1 (stereo not given)	inconclusive: 4.61 µM [cytotoxic, partial curve]	
CN(C=[N+](C)C)c1cccc2c1C(=O)c1ccccc1C2=O	inconclusive: 23.1 µM [cytotoxic, single point]	
COc1ccc(C(=O)N2CC(=O)Nc3ccc(Br)cc3C2c2ccc(F)cc2)cc1OC (stereo not given)	inconclusive: 29.1 µM [rising, single point]	
CCc1ccc(NC(=O)c2sc(-n3nc(C)c(CCC(C)C)c3C)nc2C)cc1		inactive: -0.5%
CCOc1ccc(C2Nc3cccc4cccc(c34)N2)cc1OC		inactive: 0%
CCC(c1nnnn1-c1c(C)cccc1C)N1CCN(c2ccccn2)CC1 (stereo not given)	inconclusive: 8.2 µM [cytotoxic, partial curve]	
Cc1cc(C(=O)COc2ccccc2Cl)c(C)n1-c1ccc2c(c1)OCO2	active: 13 µM	
Cn1c2ccccc2c2cc(C(=O)NNC(=O)CCl)sc21	inconclusive: 16.4 µM [cytotoxic, single point]	
Cc1ccc(/C=C/C(=O)NCC2COc3ccccc3O2)o1 (stereo not given)		inactive: 0.92%
COc1ccccc1-c1nc2ccccc2n(CC(C)C)c1=O	inconclusive: 18.4 µM [cytotoxic, partial curve]	
CCOc1cc(NC(=O)c2ccco2)c(OCC)cc1NC(=O)Cc1cccc(OC)c1	inconclusive: 0.164 µM [cytotoxic, full curve, poor fit]	
CCc1ccc(N2CC(c3nnc(NC(=O)c4ccco4)s3)CC2=O)cc1 (stereo not given)		inactive: 0%
Cc1cc(C(=O)CN2CCCC2)c(C)n1-c1ccc(Cl)cc1	inconclusive: 14.6 µM [cytotoxic, partial curve, poor fit]	
CN(CC(=O)NC1CCCc2ccccc21)C1CCCCC1 (stereo not given)	inconclusive: 29.1 µM [cytotoxic, single point]	
COc1ccc(C)cc1NC(=O)CN(C)S(=O)(=O)c1cccs1	inconclusive: 18.4 µM [cytotoxic, single point]	
C=CCOC(=O)C1=C(C)NC(SCC(=O)N(CC)CC)=C(C#N)C1c1ccccc1 (stereo not given)	inconclusive: 23.1 µM [cytotoxic, single point]	
CCN(CC)S(=O)(=O)c1cccc(-c2nnc(SCCOc3ccc(Cl)cc3)o2)c1	inconclusive: 29.1 µM [cytotoxic, single point]	
COc1ccc(O)c(-c2cc(-c3ccc(F)cc3)n[nH]2)c1		inactive: -29.9%

Compound	Potency	activity change, negative = cytotoxicity
CCCOc1ccc(NC(=O)CC2C(=O)N(CC)C(=S)N2CCCN2CCN(Cc3ccccc3)CC2)cc1 (stereo not given)	inconclusive: 23.1 µM [cytotoxic, single point]	
O=C(/C=C/c1cccs1)Nc1cccc(NC(=O)/C=C/c2cccs2)n1	active: 23.1 µM	
O=C(Nc1nc(-c2cc(F)ccc2F)cs1)c1ccccn1	inconclusive: 10.3 µM [cytotoxic, partial curve]	
Cc1cc(C)c(S(=O)(=O)N2CCCCC2CCNC(=O)C(=O)NC2CC2)c(C)c1 (stereo not given)	inconclusive: 2.06 µM [cytotoxic, partial curve, poor fit]	
COc1ccc(CCN2C(=S)NC3CC2(C)Oc2ccc([N+](=O)[O-])cc23)cc1OC (stereo not given)	active: 6.51 µM	
C/C(=N\NC(=O)Cc1cccn1C)c1ccco1	inconclusive: 29.1 µM [rising, single point]	
Cc1ccc(Nc2nc(-c3ccccc3)nc3ccccc23)cc1	inconclusive: 25.9 µM [cytotoxic, single point]	
Cn1c(CNS(=O)(=O)c2cccc(Cl)c2)cc(=O)n(C)c1=O	inconclusive: 18.4 µM [rising, single point]	
CCC/C=C/c1ccc(CN2C(CC(C)C)C(=O)N(Cc3cn(CCOCOC)nn3)CCS2(=O)=O)cc1 (stereo not given)	inconclusive: 10.3 µM [rising, partial curve, poor fit]	
COc1ccc(C=CC(=O)c2ccc(OCc3ccccc3)c(OC)c2)cc1OC	inconclusive: 25.9 µM [cytotoxic, single point]	
COC(=O)c1ccccc1S(=O)(=O)N1CCC(C(=O)Nc2ccc(N3CCOCC3)cc2)CC1	inconclusive: 16.4 µM [rising, single point]	
Cc1noc(C)c1S(=O)(=O)N1CCCCC1c1cc(C(=O)Nc2cccc3c2CCCC3)no1 (stereo not given)		inactive: -18.6%
CCc1cccc(CC)c1NC(=S)NCCc1c(C)[nH]c2ccccc12		inactive: 5.75%
CC(C)(C)c1ccc(S(=O)(=O)Nc2cccc(C3OCCCO3)c2)cc1	active: 14.6 µM	
O=C(NC1(C(F)(F)F)N=C(c2ccccc2)NC1=O)c1ccccc1F (stereo not given)		inactive: 39.3%
COc1ccc(Cc2noc(CN3CCCC(OCc4ccccn4)C3)n2)cc1OC (stereo not given)	inconclusive: 10.3 µM [cytotoxic, partial curve]	
CC(=O)Nc1ccc(S(=O)(=O)NCCSCc2ccc(Cl)cc2Cl)cc1	inconclusive: 9.2 µM [cytotoxic, partial curve, poor fit]	
CCN(C(=O)c1cc2c(=O)n3ccccc3nc2s1)C1CCCCC1	inconclusive: 4.11 µM [cytotoxic, partial curve, poor fit]	
O=C(O)c1cccnc1Nc1ccc(Cl)cc1	active: 11.6 µM	
Cc1cccc(OCc2nc(C#N)c(N3CC(C)CC(C)C3)o2)c1 (stereo not given)	inconclusive: 23.1 µM [cytotoxic, single point]	
CCOC(=O)C1=C(N)OC2=C(C(=O)CCC2)C1c1ccc2c(c1)OCO2 (stereo not given)	inconclusive: 20.6 µM [rising, single point]	
Cc1cccc(OCc2ccc(C(=O)N3CCOCC3)o2)c1		inactive: 0.284%

In a second layout: three of the compounds above.
Compound | Potency | activity change, negative = cytotoxicity
Cc1cc(C(=O)CN2CCCC2)c(C)n1-c1ccc(Cl)cc1 | inconclusive: 14.6 µM [cytotoxic, partial curve, poor fit] | 
CN(CC(=O)NC1CCCc2ccccc21)C1CCCCC1 (stereo not given) | inconclusive: 29.1 µM [cytotoxic, single point] | 
COc1ccc(C)cc1NC(=O)CN(C)S(=O)(=O)c1cccs1 | inconclusive: 18.4 µM [cytotoxic, single point] | 

Source: PubChem BioAssay AID1347076 (National Center for Advancing Translational Sciences (NCATS), 2019)
